Our source for the binding values is paper PMC6880548.

The chains behind the UniProt entries cited, without tags or fusion partners. Residues count along the entry.
UniProt Q9QUK6, residues 26-835: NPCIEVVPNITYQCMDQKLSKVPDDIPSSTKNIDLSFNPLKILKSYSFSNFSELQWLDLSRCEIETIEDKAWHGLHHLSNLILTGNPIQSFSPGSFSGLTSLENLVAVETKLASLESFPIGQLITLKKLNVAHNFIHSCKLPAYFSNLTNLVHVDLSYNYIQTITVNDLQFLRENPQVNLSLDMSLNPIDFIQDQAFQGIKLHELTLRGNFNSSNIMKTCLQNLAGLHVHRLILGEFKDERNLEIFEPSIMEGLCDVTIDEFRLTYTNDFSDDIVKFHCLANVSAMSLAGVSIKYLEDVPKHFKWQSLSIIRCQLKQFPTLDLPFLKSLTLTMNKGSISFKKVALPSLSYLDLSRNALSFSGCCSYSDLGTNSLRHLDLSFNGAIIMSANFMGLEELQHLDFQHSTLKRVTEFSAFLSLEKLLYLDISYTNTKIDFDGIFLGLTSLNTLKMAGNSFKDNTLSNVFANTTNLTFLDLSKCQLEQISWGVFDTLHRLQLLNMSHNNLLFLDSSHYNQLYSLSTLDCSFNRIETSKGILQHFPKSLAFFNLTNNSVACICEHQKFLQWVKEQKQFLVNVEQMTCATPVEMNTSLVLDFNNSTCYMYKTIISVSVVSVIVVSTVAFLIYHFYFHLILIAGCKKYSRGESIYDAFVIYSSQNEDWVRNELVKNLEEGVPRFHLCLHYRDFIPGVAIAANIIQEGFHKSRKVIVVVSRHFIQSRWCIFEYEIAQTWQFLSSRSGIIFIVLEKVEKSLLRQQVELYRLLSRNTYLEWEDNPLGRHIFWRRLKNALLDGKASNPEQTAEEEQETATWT

Results are given in words; binding and its absence hold for the method and conditions named. In cells and extracts the contact can be indirect. Some binding calls cover weakened binding; strength is not graded here.

This assay has as its target Toll-like receptor 4 (mouse (endogenous in mouse brain tissue)) (UniProt Q9QUK6). As to the kind of experiment: co-IP; rat anti-TLR4 IP from RIPA lysate of mouse brain tissue at the bleeding site, third day after inducing ICH with collagenase VII; protein A/G Plus-agarose overnight at 4 °C, washed thrice with PBS; Western blot for TLR4, CD14 and collagenase. On the technique in general: A western blot detects proteins with antibodies after separation by electrophoresis.

B1: CD14 (protein, UniProt P10810 16-336)
chain: SPAPPEPCELDEESCSCNFSDPKPDWSSAFNCLGAADVELYGGGRSLEYLLKRVDTEADLGQFTDIIKSLSLKRLTVRAARIPSRILFGALRVLGISGLQELTLENLEVTGTAPPPLLEATGPDLNILNLRNVSWATRDAWLAELQQWLKPGLKVLSIAQAHSLNFSCEQVRVFPALSTLDLSDNPELGERGLISALCPLKFPTLQVLALRNAGMETPSGVCSALAAARVQLQGLDLSHNSLRDAAGAPSCDWPSQLNSLNLSFTGLKQVPKGLPAKLSVLDLSYNRLDRNPSPDELPQVGNLSLKGNPFLDSESHSEKFN
On to B1, for which the binding entry is “binds”.
